Binding data for 1 molecule are collected here from PMC5595887.

Results are given in words; binding and its absence hold for the method and conditions named. In cells and extracts the contact can be indirect. Binding calls can cover weak binding; strength is not graded here. Sequences can lack the tags named with a protein.

This assay addresses DsRED-fused ATG10S (human). Briefly: co-IP; HepG2 cells co-transfected with egfp-fused il28a and DsRED-fused atg10s plasmids; RIPA lysate; immunoprecipitation with anti-RFP antibody, protein A/G agarose beads, 4 °C, Western blot. In general terms: A western blot detects proteins with antibodies after separation by electrophoresis.

B1: EGFP-fused IL28A (protein, UniProt Q8IZJ0 26-200)
chain: VPVARLHGALPDARGCHIAQFKSLSPQELQAFKRAKDALEESLLLKDCRCHSRLFPRTWDLRQLQVRERPMALEAELALTLKVLEATADTDPALVDVLDQPLHTLHHILSQFRACIQPQPTAGPRTRGRLHHWLYRLQEAPKKESPGCLEASVTFNLFRLLTRDLNCVASGDLCV
On to B1, for which the binding result is given as “binds”.
